Results are given in words; binding and its absence hold for the method and conditions named. Binding seen in cells or lysates may run through a third protein. These calls come from enrichment with a bait or labelling near it, and not all partners need be listed.

Chains of the proteins cited; added tags and fusions are not shown. Residues count along the entry.
UniProt P63104: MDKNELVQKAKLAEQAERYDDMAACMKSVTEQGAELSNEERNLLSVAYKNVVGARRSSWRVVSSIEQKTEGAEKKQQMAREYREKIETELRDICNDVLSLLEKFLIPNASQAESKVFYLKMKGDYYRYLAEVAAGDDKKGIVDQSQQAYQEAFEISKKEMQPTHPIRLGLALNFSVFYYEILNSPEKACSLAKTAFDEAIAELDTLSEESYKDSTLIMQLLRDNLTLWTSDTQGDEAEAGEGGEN
UniProt O35129: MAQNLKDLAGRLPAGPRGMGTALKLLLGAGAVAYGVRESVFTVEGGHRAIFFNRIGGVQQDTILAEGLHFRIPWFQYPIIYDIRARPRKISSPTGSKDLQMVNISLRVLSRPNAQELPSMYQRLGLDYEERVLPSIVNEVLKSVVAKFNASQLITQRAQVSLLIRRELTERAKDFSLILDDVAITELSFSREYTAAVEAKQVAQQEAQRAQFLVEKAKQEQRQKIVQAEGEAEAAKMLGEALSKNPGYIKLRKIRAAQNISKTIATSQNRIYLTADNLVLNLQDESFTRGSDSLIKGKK
UniProt Q9DBG6, residues 23-631: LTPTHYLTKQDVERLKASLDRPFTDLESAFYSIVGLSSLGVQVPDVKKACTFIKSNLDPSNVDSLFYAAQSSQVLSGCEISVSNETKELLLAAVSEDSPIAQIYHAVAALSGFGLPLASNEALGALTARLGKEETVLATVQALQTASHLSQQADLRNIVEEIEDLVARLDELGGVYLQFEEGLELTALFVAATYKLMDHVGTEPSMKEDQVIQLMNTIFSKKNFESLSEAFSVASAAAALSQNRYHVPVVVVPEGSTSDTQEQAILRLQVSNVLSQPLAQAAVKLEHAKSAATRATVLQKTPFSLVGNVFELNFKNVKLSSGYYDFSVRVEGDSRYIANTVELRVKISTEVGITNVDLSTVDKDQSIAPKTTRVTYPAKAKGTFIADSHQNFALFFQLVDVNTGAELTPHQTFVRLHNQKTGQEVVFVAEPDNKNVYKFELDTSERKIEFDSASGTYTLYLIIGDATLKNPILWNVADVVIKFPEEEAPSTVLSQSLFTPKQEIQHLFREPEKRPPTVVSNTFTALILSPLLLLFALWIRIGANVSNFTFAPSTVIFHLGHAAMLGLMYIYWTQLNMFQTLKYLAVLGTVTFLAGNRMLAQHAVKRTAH

In the experiment the target is TAP-epitope tagged human 14-3-3ζ (human) (UniProt P63104). The experiment is described as follows: affinity purification with mass spectrometry.

Consider “Prohibitin-2 (from UniProt O35129 1-299)”, for which the binding entry is reported as “binds”.
As for Hnrnpk (from UniProt P61979 1-463), the binding result was “binds”.
Rpn2 (from UniProt Q9DBG6 23-631): the binding result is reported as “binds”.

B1: Sfpq (protein, UniProt Q8VIJ6 1-699)
chain: MSRDRFRSRGGGGGGFHRRGGGGGRGGLHDFRSPPPGMGLNQNRGPMGPGPGGPKPPLPPPPPHQQQQQPPPQQPPPQQPPPHQQPPPHQPPHQQPPPPPQESKPVVPQGPGSAPGVSSAPPPAVSAPPANPPTTGAPPGPGPTPTPPPAVPSTAPGPPPPSTPSSGVSTTPPQTGGPPPPPAGGAGPGPKPGPGPGGPKGGKMPGGPKPGGGPGMGAPGGHPKPPHRGGGEPRGGRQHHAPYHQQHHQGPPPGGPGPRTEEKISDSEGFKANLSLLRRPGEKTYTQRCRLFVGNLPADITEDEFKRLFAKYGEPGEVFINKGKGFGFIKLESRALAEIAKAELDDTPMRGRQLRVRFATHAAALSVRNLSPYVSNELLEEAFSQFGPIERAVVIVDDRGRSTGKGIVEFASKPAARKAFERCSEGVFLLTTTPRPVIVEPLEQLDDEDGLPEKLAQKNPMYQKERETPPRFAQHGTFEYEYSQRWKSLDEMEKQQREQVEKNMKDAKDKLESEMEDAYHEHQANLLRQDLMRRQEELRRMEELHSQEMQKRKEMQLRQEEERRRREEEMMIRQREMEEQMRRQREESYSRMGYMDPRERDMRMGGGGTMNMGDPYGSGGQKFPPLGGGGGIGYEANPGVPPATMSGSMMGSDMRTERFGQGGAGPVGGQGPRGMGPGTPAGYGRGREEYEGPNKKPRF
B1: the binding result was “binds”.

B2: Ptrf/Cavin1 (protein, UniProt O54724 1-392)
chain: MEDVTLHIVERPYSGFPDASSEGPEPTQGEARATEEPSGTGSDELIKSDQVNGVLVLSLLDKIIGAVDQIQLTQAQLEERQAEMEGAVQSIQGELSKLGKAHATTSNTVSKLLEKVRKVSVNVKTVRGSLERQAGQIKKLEVNEAELLRRRNFKVMIYQDEVKLPAKLSVSKSLKESEALPEKEGDELGEGERPEDDTAAIELSSDEAVEVEEVIEESRAERIKRSGLRRVDDFKKAFSKEKMEKTKVRTRENLEKTRLKTKENLEKTRHTLEKRMNKLGTRLVPVERREKLKTSRDKLRKSFTPDHVVYARSKTAVYKVPPFTFHVKKIREGEVEVLKATEMVEVGPEDDEVGAERGEATDLLRGSSPDVHTLLEITEESDAVLVDKSDSD
Regarding B2, the binding entry was “binds”.

B3: Syncrip/Hnrnpq (protein, UniProt Q7TMK9 1-623)
chain: MATEHVNGNGTEEPMDTTSAVIHSENFQTLLDAGLPQKVAEKLDEIYVAGLVAHSDLDERAIEALKEFNEDGALAVLQQFKDSDLSHVQNKSAFLCGVMKTYRQREKQGTKVADSSKGPDEAKIKALLERTGYTLDVTTGQRKYGGPPPDSVYSGQQPSVGTEIFVGKIPRDLFEDELVPLFEKAGPIWDLRLMMDPLTGLNRGYAFVTFCTKEAAQEAVKLYNNHEIRSGKHIGVCISVANNRLFVGSIPKSKTKEQILEEFSKVTEGLTDVILYHQPDDKKKNRGFCFLEYEDHKTAAQARRRLMSGKVKVWGNVGTVEWADPIEDPDPEVMAKVKVLFVRNLANTVTEEILEKSFSQFGKLERVKKLKDYAFIHFDERDGAVKAMEEMNGKDLEGENIEIVFAKPPDQKRKERKAQRQAAKNQMYDDYYYYGPPHMPPPTRGRGRGGRGGYGYPPDYYGYEDYYDYYGYDYHNYRGGYEDPYYGYEDFQVGARGRGGRGARGAAPSRGRGAAPPRGRAGYSQRGGPGSARGVRGARGGAQQQRGRGVRGARGGRGGNVGGKRKADGYNQPDTKRRQTNNQNWGSQPIAQQPLQGGDHSGNYGYKSENQEFYQDTFGQQWK
With B3, the binding result is recorded as “binds”.

B4: Nono (protein, UniProt Q99K48 1-473)
chain: MQSNKAFNLEKQNHTPRKHHQHHHQQHHQQQQQQQQQQPPPPIPANGQQASSQNEGLTIDLKNFRKPGEKTFTQRSRLFVGNLPPDITEEEMRKLFEKYGKAGEVFIHKDKGFGFIRLETRTLAEIAKVELDNMPLRGKQLRVRFACHSASLTVRNLPQYVSNELLEEAFSVFGQVERAVVIVDDRGRPSGKGIVEFSGKPAARKALDRCSEGSFLLTTFPRPVTVEPMDQLDDEEGLPEKLVIKNQQFHKEREQPPRFAQPGSFEYEYAMRWKALIEMEKQQQDQVDRNIKEAREKLEMEMEAARHEHQVMLMRQDLMRRQEELRRMEELHNQEVQKRKQLELRQEEERRRREEEMRRQQEEMMRRQQEGFKGTFPDAREQEIRMGQMAMGGAMGINNRGAMPPAPVPPGTPAPPGPATMMPDGTLGLTPPTTERFGQAATMEGIGAIGGTPPAFNRPAPGAEFAPNKRRRY
Regarding B4, the binding result is on record as “binds”.

B5: Hnrnpf (protein, UniProt Q9Z2X1 1-415)
chain: MMLGPEGGEGYVVKLRGLPWSCSIEDVQNFLSDCTIHDGVAGVHFIYTREGRQSGEAFVELESEDDVKLALKKDRESMGHRYIEVFKSHRTEMDWVLKHSGPNSADSANDGFVRLRGLPFGCTKEEIVQFFSGLEIVPNGITLPVDPEGKITGEAFVQFASQELAEKALGKHKERIGHRYIEVFKSSQEEVRSYSDPPLKFMSVQRPGPYDRPGTARRYIGIVKQAGLDRMRSGAYSAGYGGYEEYSGLSDGYGFTTDLFGRDLSYCLSGMYDHRYGDSEFTVQSTTGHCVHMRGLPYKATENDIYNFFSPLNPVRVHIEIGPDGRVTGEADVEFATHEEAVAAMSKDRANMQHRYIELFLNSTTGASNGAYSSQVMQGMGVSAAQATYSGLESQSVSGCYGAGYSGQNSMGGYD
For the molecule B5, the binding result is listed as “binds”.
